{
  "source": "PubChem BioAssay AID200",
  "about": "(DTP/NCI, 2004)",
  "system": "B6C3F1 mice, B16 melanoma ip, median survival T/C",
  "assay": "NCI In Vivo Anticancer Drug Screen. Data for tumor model B16 Melanoma (intraperitoneal) in B6C3F1 mice",
  "settings": "T/C endpoint: median survival time, schedule: Q01DX009 (ip), higher T/C = longer survival",
  "method": "The antitumor activity of compounds was measured in mice bearing transplantable tumors. Survival or tumor size were measured and the results are expressed as the measurement made in the treated group (T) divided by the measurement made in the vehicle treated control group (C). The tumor model used in this assay is B16 Melanoma (intraperitoneal) in B6C3F1 mice",
  "key": {"[1]": {"settings": "dose: 0.38 mg/kg/injection, vehicle: saline + alcohol"}, "[2]": {"settings": "dose: 0.38 mg/kg/injection, vehicle: water"}, "[3]": {"settings": "dose: 0.75 mg/kg/injection, vehicle: saline + alcohol"}, "[4]": {"settings": "dose: 0.75 mg/kg/injection, vehicle: water"}, "[5]": {"settings": "dose: 1.5 mg/kg/injection, vehicle: saline + alcohol"}, "[6]": {"settings": "dose: 3.0 mg/kg/injection, vehicle: saline + alcohol"}, "[7]": {"settings": "dose: 0.5 mg/kg/injection, vehicle: distilled water + Tween-80"}},
  "note": "The list is a part of this screen's results and no random one: it covers a few groups of compounds. Other doses and runs of a compound may be missing. T/C is the treated group as % of the vehicle group. For survival time, this PubChem deposit counts one and a half times the control or more as active, and values a quarter to a half above the control carry no call in these data; other NCI protocols may use other cut-offs. Schedule codes are those of the source, taken here to give the interval after Q, in days (D) or hours (H), and the number of doses after X. Some T/C values are marked as having no survivor count here; that says nothing about deaths at the dose. Additions like (4×) give the number of equal values in this list. Some entries hold several experiments; the values are given in rising order.",
  "data": [
    {"molecule": "CC(=O)OCC12CC(O)C(C)=CC1OC1C(O)C(OC(C)=O)C2(C)C12CO2", "note": "(stereo not given)", "values": [
      {"measurement": "T/C", "setting": "dose: 0.16 mg/kg/injection, vehicle: saline", "value": "130 % of control [survivor count not shown]"},
      {"measurement": "T/C", "setting": "dose: 0.31 mg/kg/injection, vehicle: saline", "value": "136 % of control [survivor count not shown]"},
      {"measurement": "T/C", "setting": "dose: 0.63 mg/kg/injection, vehicle: saline", "value": "159 % of control [survivor count not shown]"}
    ]},
    {"molecule": "CC(=O)OC[C@]12CCC(C)=C[C@H]1O[C@@H]1C(=O)[C@@H](OC(=O)CCl)[C@@]2(C)[C@@]12CO2", "values": [
      {"measurement": "T/C", "setting": "dose: 0.19 mg/kg/injection, vehicle: saline + alcohol", "value": "114 % of control [survivor count not shown]"},
      {"measurement": "T/C", "setting": "[1]", "value": "127 % of control [survivor count not shown]"},
      {"measurement": "T/C", "setting": "[2]", "value": "131 % of control [survivor count not shown]"},
      {"measurement": "T/C", "setting": "[3]", "value": "120 % of control [survivor count not shown]"},
      {"measurement": "T/C", "setting": "[4]", "value": "147 % of control [survivor count not shown]"},
      {"measurement": "T/C", "setting": "[5]", "value": "134 % of control [survivor count not shown]"},
      {"measurement": "T/C", "setting": "dose: 1.5 mg/kg/injection, vehicle: water", "value": "143 % of control [survivor count not shown]"},
      {"measurement": "T/C", "setting": "[6]", "value": "122 % of control [survivor count not shown]"},
      {"measurement": "T/C", "setting": "dose: 3.0 mg/kg/injection, vehicle: water", "value": "136 % of control [survivor count not shown]"}
    ]},
    {"molecule": "C=C(C)C(=O)OCC12CC(=O)C(C)=CC1OC1C(=O)C(OC(=O)C(=C)C)C2(C)C12CO2", "note": "(stereo not given)", "values": [
      {"measurement": "T/C", "setting": "dose: 0.25 mg/kg/injection, vehicle: water", "value": "142 % of control [survivor count not shown]"},
      {"measurement": "T/C", "setting": "dose: 0.5 mg/kg/injection, vehicle: water", "value": "133 % of control [survivor count not shown]"},
      {"measurement": "T/C", "setting": "dose: 1.0 mg/kg/injection, vehicle: water", "value": "167 % of control [survivor count not shown]"}
    ]},
    {"molecule": "C/C=C/C(=O)OC[C@]12CCC(C)=C[C@H]1O[C@@H]1[C@H](O)[C@@H](O)[C@@]2(C)[C@@]12CO2", "values": [
      {"measurement": "T/C", "setting": "[1]", "value": "112 [survivor count not shown] and 123 % of control [survivor count not shown]"},
      {"measurement": "T/C", "setting": "[2]", "value": "121 % of control [survivor count not shown]"},
      {"measurement": "T/C", "setting": "[3]", "value": "118 [survivor count not shown] and 123 % of control [survivor count not shown]"},
      {"measurement": "T/C", "setting": "[4]", "value": "127 % of control [survivor count not shown]"},
      {"measurement": "T/C", "setting": "[5]", "value": "123 [survivor count not shown] and 125 % of control [survivor count not shown]"},
      {"measurement": "T/C", "setting": "[6]", "value": "118 [survivor count not shown] and 122 % of control [survivor count not shown]"}
    ]},
    {"molecule": "CC(=O)OCC12CC(=O)C(C)=CC1OC1C(=O)C(OC(=O)CCl)C2(C)C12CO2", "note": "(stereo not given)", "values": [
      {"measurement": "T/C", "setting": "dose: 0.12 mg/kg/injection, vehicle: distilled water + Tween-80", "value": "121 % of control [survivor count not shown]"},
      {"measurement": "T/C", "setting": "dose: 0.25 mg/kg/injection, vehicle: distilled water + Tween-80", "value": "134 % of control [survivor count not shown]"},
      {"measurement": "T/C", "setting": "[7]", "value": "142 [survivor count not shown] and 165 % of control [survivor count not shown]"}
    ]},
    {"molecule": "C=C(C)C(=O)OC[C@]12CCC(C)=C[C@H]1O[C@@H]1[C@H](O)[C@@H](O)[C@@]2(C)[C@@]12CO2", "values": [
      {"measurement": "T/C", "setting": "dose: 0.13 mg/kg/injection, vehicle: saline + alcohol", "value": "134 % of control [survivor count not shown]"},
      {"measurement": "T/C", "setting": "dose: 0.25 mg/kg/injection, vehicle: saline + alcohol", "value": "132 % of control [survivor count not shown]"},
      {"measurement": "T/C", "setting": "dose: 0.5 mg/kg/injection, vehicle: saline + alcohol", "value": "149 % of control [survivor count not shown]"},
      {"measurement": "T/C", "setting": "dose: 1.0 mg/kg/injection, vehicle: saline + alcohol", "value": "138 % of control [survivor count not shown]"},
      {"measurement": "T/C", "setting": "dose: 2.0 mg/kg/injection, vehicle: saline + alcohol", "value": "144 % of control [survivor count not shown]"}
    ]},
    {"molecule": "CC(=O)OCC12CCC(C)=CC1OC1C3(O)N=C(C)OC3C2(C)C12CO2", "note": "(stereo not given)", "values": [
      {"measurement": "T/C", "setting": "[7]", "value": "114 % of control [survivor count not shown]"},
      {"measurement": "T/C", "setting": "dose: 1.0 mg/kg/injection, vehicle: distilled water + Tween-80", "value": "132 % of control [survivor count not shown]"},
      {"measurement": "T/C", "setting": "dose: 2.0 mg/kg/injection, vehicle: distilled water + Tween-80", "value": "125 % of control [survivor count not shown] (2×)"},
      {"measurement": "T/C", "setting": "dose: 4.0 mg/kg/injection, vehicle: distilled water + Tween-80", "value": "121 [survivor count not shown] and 138 % of control [survivor count not shown]"},
      {"measurement": "T/C", "setting": "dose: 8.0 mg/kg/injection, vehicle: distilled water + Tween-80", "value": "127 % of control [survivor count not shown]"}
    ]},
    {"molecule": "CC(=O)OC[C@]12CCC(C)=C[C@H]1O[C@@H]1[C@H](O)[C@@H](OC(=O)CCl)[C@@]2(C)[C@@]12CO2", "values": [
      {"measurement": "T/C", "setting": "[1]", "value": "117 % of control [survivor count not shown]"},
      {"measurement": "T/C", "setting": "[2]", "value": "131 % of control [survivor count not shown]"},
      {"measurement": "T/C", "setting": "[3]", "value": "120 % of control [survivor count not shown]"}
    ]},
    {"molecule": "C[C@H](O)[C@H]1/C=C/C=C\\C(=O)O[C@@H]2C[C@H]3O[C@@H]4[C@@H]5O[C@]5(C)CCC4(COC(=O)[C@H]4O[C@]4(C)[C@@H](O)CO1)[C@]2(C)[C@]31CO1", "note": "(stereo not given in full)", "values": [
      {"measurement": "T/C", "setting": "dose: 0.93 mg/kg/injection, vehicle: saline + Tween-80 + alcohol", "value": "154 % of control [survivor count not shown]"},
      {"measurement": "T/C", "setting": "dose: 1.25 mg/kg/injection, vehicle: saline + Tween-80 + alcohol", "value": "165 % of control [survivor count not shown]"},
      {"measurement": "T/C", "setting": "dose: 2.5 mg/kg/injection, vehicle: saline + Tween-80 + alcohol", "value": "188 % of control [survivor count not shown]"}
    ]}
  ]
}
